# In all, about 1,400 compounds went through this assay and about 940 (67%) were called active. The set was probably picked from earlier hits. Inconclusive means that the source gave no clear call. Such entries were picked first, then a sample of the others. Calls come from the whole dose curve. A potency beside an inconclusive call is a rough fit, not a confirmed value.
# Sequences of proteins named here, by UniProt entry; tags and fusion partners are left off. A change or cut given only in a name is not applied to a line headed by its entry.
# UniProt P20594: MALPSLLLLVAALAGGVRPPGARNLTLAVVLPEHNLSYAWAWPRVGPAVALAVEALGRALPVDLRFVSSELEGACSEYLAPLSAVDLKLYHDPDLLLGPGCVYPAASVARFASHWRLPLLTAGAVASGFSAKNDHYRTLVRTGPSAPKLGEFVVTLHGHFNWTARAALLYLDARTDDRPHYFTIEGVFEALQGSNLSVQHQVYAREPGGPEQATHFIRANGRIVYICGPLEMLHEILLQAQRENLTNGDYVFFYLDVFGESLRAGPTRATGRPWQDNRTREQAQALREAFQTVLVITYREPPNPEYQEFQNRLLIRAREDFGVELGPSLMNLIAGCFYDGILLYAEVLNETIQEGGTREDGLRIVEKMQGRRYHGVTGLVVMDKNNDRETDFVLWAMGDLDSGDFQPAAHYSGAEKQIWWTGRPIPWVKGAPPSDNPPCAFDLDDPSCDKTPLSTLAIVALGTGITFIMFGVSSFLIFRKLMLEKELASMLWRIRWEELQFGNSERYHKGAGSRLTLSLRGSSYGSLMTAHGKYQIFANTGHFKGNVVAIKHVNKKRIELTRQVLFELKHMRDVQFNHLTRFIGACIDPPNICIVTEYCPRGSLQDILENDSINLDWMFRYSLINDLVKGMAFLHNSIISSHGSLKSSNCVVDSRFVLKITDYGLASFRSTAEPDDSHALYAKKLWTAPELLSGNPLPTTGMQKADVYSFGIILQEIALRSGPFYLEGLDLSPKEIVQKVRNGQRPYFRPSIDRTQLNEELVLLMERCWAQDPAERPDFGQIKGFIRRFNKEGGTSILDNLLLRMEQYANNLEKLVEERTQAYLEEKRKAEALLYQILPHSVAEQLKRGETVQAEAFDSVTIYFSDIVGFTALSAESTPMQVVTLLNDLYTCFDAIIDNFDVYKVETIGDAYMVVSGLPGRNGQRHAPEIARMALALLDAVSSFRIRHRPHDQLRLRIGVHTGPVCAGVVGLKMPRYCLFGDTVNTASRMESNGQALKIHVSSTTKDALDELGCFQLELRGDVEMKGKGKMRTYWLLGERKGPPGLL
# Target: Atrial natriuretic peptide receptor 2 (Homo sapiens) (UniProt P20594)
# Assay: Natriuretic polypeptide receptor (hNpr2) antagonism - Subtype selectivity assay; note: nearly all actives have a fitted effect of over 70% in size
# Settings: HEK293 hNpr2 GloSensor cGMP luminescence, CNP-stimulated; series mostly up to 57.6 µM; activity change, negative = inhibition: at the top concentration
# In short: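 Read-out: luminescence, with a CCD camera read before and 20 min after adding 1 nM hNppC. Before stimulation, HEK293 cells expressing hNpr2 and the GloSensor cGMP biosensor were preincubated with compound for 30 min in the dark.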
# Potency is the fitted concentration of half-maximal effect.
Compound,Potency,"activity change, negative = inhibition"
Cc1cc(=O)n(CC(=O)Nc2ccc(F)c(Cl)c2)c(N(C)Cc2ccccc2)n1,"inconclusive: 21.7 µM [inhibitor, partial curve]",
COc1ncccc1-c1cc(C(=O)NCCN(C)C)c2c(c1)ncn2C,,inactive: -2.32% [at 86.2 µM]
O=C1c2cc(N3CCOCC3)nc(-c3cccc(F)c3)c2CN1Cc1ccccc1,"inconclusive: 28 µM [inhibitor, partial curve]",
COCc1cc(N2CCc3onc(-c4cccc5ccccc45)c3C2)ncn1,"inconclusive: 24.3 µM [inhibitor, partial curve]",
CC(C)c1noc(-c2cn(C3CCCN(C(=O)c4cccc5[nH]ccc45)C3)nn2)n1 (configuration not stated),"inconclusive: 34.3 µM [inhibitor, single point]",
COc1ccc(CCC(=O)N2CCC(Cc3nc(-c4ccc(F)cc4)no3)CC2)cc1,active: 10.9 µM,
Cc1ccc(-c2ccc(O)cn2)c2cccnc12,"inconclusive: 43.2 µM [inhibitor, single point]",
O=C(c1cc(-c2ccccc2F)cc2c1OCCN2Cc1cccnc1)N1CCC1,"inconclusive: 25 µM [inhibitor, partial curve]",
O=C1NC2(CCN(Cc3ccc(OC(F)(F)F)cc3)C2)OCc2ccccc21 (configuration not stated),active: 21.7 µM,
O=C(c1cc(CN2CCOCC2)on1)N1CCC(c2nc(C3CCOCC3)no2)C1 (configuration not stated),,inactive: 4.49%
O=C1c2c(nc(COc3ccc4c(c3)OCO4)n2Cc2ccccc2)NCCN1Cc1ccccc1F,"inconclusive: 21.7 µM [inhibitor, partial curve]",
Cc1ccccc1C(=O)N1CCN(C(=O)c2nnn3c2COC(c2ccc(Cl)cc2)C3)CC1 (configuration not stated),"inconclusive: 30.6 µM [inhibitor, single point]",
Cc1cc(C(=O)Nc2cccc(-c3nnc4n3CCCC4)c2)n[nH]1,"inconclusive: 30.6 µM [inhibitor, single point]",
COc1cccc(CC(=O)N2CCN(C(=O)c3nnn4c3COC(c3ccc(C)cc3)C4)CC2)c1 (configuration not stated),"inconclusive: 30.6 µM [inhibitor, single point]",
O=C(c1cc2n(n1)CC(c1ccc(Cl)cc1)OC2)N1CCN(c2ccc(Cl)cc2)CC1 (configuration not stated),"inconclusive: 24.3 µM [inhibitor, partial curve]",
O=C(NCC1CC1)c1nc2c(o1)CCN(Cc1ccc3c(c1)CCO3)CC2,"inconclusive: 39.6 µM [inhibitor, partial curve]",
O=C(c1cc(Cl)ccc1F)N1CCN(C(=O)c2nnn3c2COC(c2ccccc2)C3)CC1 (configuration not stated),"inconclusive: 34.3 µM [inhibitor, single point]",

# A run of entries from the list above, for reference:
Compound,Potency,"activity change, negative = inhibition"
COc1ccc(CCC(=O)N2CCC(Cc3nc(-c4ccc(F)cc4)no3)CC2)cc1,active: 10.9 µM,
Cc1ccc(-c2ccc(O)cn2)c2cccnc12,"inconclusive: 43.2 µM [inhibitor, single point]",
